Laboratory results from patent US6908745B2, “Gamma sterilizable culture medium for the identification of yeasts and fungi” (Biotest AG, priority 2001, dated 2005).
At least one structure is not confirmed: it was looked up by name or label, or the drawing left a doubt.

Tested on: bacteria
Assay: Antibacterial effect of antibiotics after γ-radiation
Conditions: γ-radiation with 25 kGray
Protocol: In the pharmaceuticals industry are sought γ-sterilized media for use in clean room areas and isolators. These clean room areas must be monitored for microbial contamination, and the product (that is, the microbiological nutrient medium) itself, with which this monitoring is carried out, should not introduce any contamination, but be sterile. The microbiological media are not completely sterile after autoclaving and filling into, for example, Petri dishes or other agar carriers, but have contamination rates in the order of magnitude of 0.1 to approx. 1%. Only as a result of an additional γ-sterilization (or β-sterilization) with high-energy radiation are killed the residual existing contaminations and a sterile product is obtained. However, many antibiotics are destroyed as a result of the γ-sterilization, so that afterward in selective media for yeasts and fungi whose selectivity is based on the addition of antibiotics, this selectivity no longer exists.

SMILES: CN(C)[C@@H]1C(O)=C(C(N)=O)C(=O)[C@@]2(O)C(O)=C3C(=O)c4c(O)ccc(Cl)c4[C@@](C)(O)[C@H]3C[C@@H]12 [chlortetracycline]
- antibacterial effect after γ-radiation: completely destroyed
